PubChem BioAssay AID686943 – Drosophila RNAi Screening Center – 2013
Assay: 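Search across the genome for regulators of signalling from receptor tyrosine kinase to ERK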 (primary screen). Cells: Drosophila S2R+ haemocyte-like cells expressing YFP-tagged ERK (Rolled). Reagent: long dsRNA against Drosophila genes. Treatment: insulin stimulation versus unstimulated cells; dose and duration not given. Measurement: 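Antibody staining for doubly phosphorylated ERK divided by ERK-YFP signal, as plate z-scores, in insulin-treated and untreated cells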. Direction: replicate 1, z-score of dpERK with insulin and replicate 2, z-score of dpERK with insulin: higher = more active ERK per ERK-YFP after insulin; replicate 1, z-score of dpERK under basal conditions: higher = more basal active ERK per ERK-YFP; replicate 1, z-score of ERK-YFP with insulin: higher = more YFP-tagged ERK signal.
The deposit covers about 23,000 reagents; shown is an unselected part of those that have a named target and a result. 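Extra replicates exist only for a retested subset of genes; insulin dose and duration not given; both raised and lowered dpERK matter.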 A plus sign joins genes that one reagent is predicted to hit. Not given: the amount of reagent, the time to read-out.

gene	dsRNA	replicate 1, z-score of dpERK with insulin	replicate 2, z-score of dpERK with insulin	replicate 1, z-score of dpERK under basal conditions	replicate 1, z-score of ERK-YFP with insulin
CG32278 + CG14963	DRSC22203	-0.08	-0.22	-0.28	-0.44
Sec61beta	DRSC07548	0.26	-1.11	-0.67	0.12
Sec61beta	DRSC21512	-0.13	-0.18	0.71	0.23
BomS3	DRSC21458	0.07	-0.24	0.8	1.89
DIP-delta	DRSC10214	1.54	-0.36	-0.92	-1.33
DIP-delta	DRSC10450	0.31	1.08	0.64	1.32
ImpL1	DRSC11197	0.32	-0.47	0.8	-0.56
CG3339	DRSC13821	-0.27	0.09	-0.72	0.34
CG3339	DRSC15479	-0.06	0.27	-0.01	0.07
Naa30B	DRSC08245	0.03	-0.03	0.06	0
BCAS2	DRSC15693	-0.08	1.07	0.09	-0.32
ND-42	DRSC16754	-0.1	-1.26	-0.76	0.45
Vml	DRSC17695	0.79	0.46	1.61	-0.03
Vml	DRSC18529	1.67	0.14	0.66	-0.04
CG7631	DRSC01873	-0.06	-0.05	1.25	0.71
CG14545	DRSC14889	0.84	-0.06	0.07	0.06
ab	DRSC01162	-2.8	-2.26	-4.63	3.31
ab	DRSC03478	-1.14	-4.25	-2.98	1.01
Irk3	DRSC02047	1.3	0.07	-1.47	-0.69
CG11583	DRSC08202	-0.1	0.13	-1.12	-0.54
CG7829	DRSC16322	-0.55	-0.94	0.16	-0.68
ham	DRSC01657	1.15	0.04	-0.07	0.21
ham	DRSC02070	0.99	0.83	0.03	0.17
ham	DRSC02512	0.37	0.8	0.15	0.77
ham	DRSC02513	0.17	0.8	2.4	0.16
ref(2)P	DRSC03601	1.02	1.44	0.51	0.35

Next part (7 carried over from the part before).
gene	dsRNA	replicate 1, z-score of dpERK with insulin	replicate 2, z-score of dpERK with insulin	replicate 1, z-score of dpERK under basal conditions	replicate 1, z-score of ERK-YFP with insulin
CG11583	DRSC08202	-0.1	0.13	-1.12	-0.54
CG7829	DRSC16322	-0.55	-0.94	0.16	-0.68
ham	DRSC01657	1.15	0.04	-0.07	0.21
ham	DRSC02070	0.99	0.83	0.03	0.17
ham	DRSC02512	0.37	0.8	0.15	0.77
ham	DRSC02513	0.17	0.8	2.4	0.16
ref(2)P	DRSC03601	1.02	1.44	0.51	0.35
Mabi	DRSC02489	-0.29	0.55	0.86	0.19
gsb-n	DRSC04021	0.22	0.74	-0.42	-0.27
gsb-n	DRSC04693	0.52	0.24	1.14	-0.94
dtn	DRSC17939	-0.49	-0.12	0.06	-0.15
CG5958	DRSC02915	-0.13	-0.41	0.06	-2.65
Vha16-4	DRSC07321	0.4	0.03	0.73	-0.05
CG13813	DRSC10068	-0.64	0.7	0.99	0.07
CG7137	DRSC07017	0.28	-0.03	0.04	-0.23
Cth	DRSC07422	0.91	0.11	0.82	0.03
CG1233	DRSC08269	1.02	-0.34	0.16	-1.17
vret	DRSC15640	-0.41	-0.06	-0.69	-0.36
CG11275	DRSC04095	0.81	-0.4	0.08	0.23
OtopLc	DRSC18082	-0.21	0.81	0.23	0.24
OtopLc	DRSC18083	0.59	1.31	-0.19	-2.61
OtopLc	DRSC18132	-0.78	0	0.56	0.38
CG4199	DRSC18519	0.19	-0.61	-0.21	0.13
CG4199	DRSC21314	-1.57	-2.11	0.99	0.43
CG12343	DRSC06135	0.64	0.39	-0.26	-0.79
RluA-1	DRSC02240	-0.47	0.84	-0.18	0.24
RluA-1	DRSC03060	0.51	0.7	-0.32	0.9
CG15876	DRSC08484	0.54	0.75	0.62	-0.19
Snx6	DRSC03081	0.3	0.46	-0.1	-0.45
GstD8	DRSC16689	-0.02	0.16	-0.3	0.98
Cdk2	DRSC16921	-0.71	-2.8	-0.31	-1.85
se	DRSC10713	0.26	0.41	0.6	-0.6
Lamtor4	DRSC08436	0.56	0.14	0.73	0.29
CG7031	DRSC16178	-0.49	-1.88	-2.79	-2.03
smog	DRSC00334	0.93	0.3	1.25	0.65
smog	DRSC00335	-3.35	-3.33	-1.76	0.17
Ir68b	DRSC10251	0.15	-0.05	0.98	0.36
vlc	DRSC04922	-0.2	0.38	0.31	0.07
htt	DRSC16970	-0.36	0	-0.44	-0.01
CG16704	DRSC00475	0.03	0.44	-0.47	0.65
Cdk5alpha	DRSC03290	-1.74	-0.56	-0.06	-0.67
CG12680	DRSC17871	0.73	0.13	0.11	-0.39
Plp	DRSC10006	0.55	1.2	-0.37	0.15
Plp	DRSC10333	-0.13	-0.23	0.3	0.32
Plp	DRSC10700	0.26	-0.57	0.22	0.07
Gr59b	DRSC04179	0.13	-0.18	0.78	0.28
Mhc	DRSC03367	-0.06	0.82	0.12	-0.98
CG9449	DRSC11073	-0.13	0.11	-0.76	-0.18
LBR	DRSC04298	0.64	0.14	-0.99	-0.08
CG17361	DRSC10266	-1.64	-1.76	-0.88	0.86
cup	DRSC03516	-1.12	-0.02	-0.43	-0.32
CG6428	DRSC18402	-0.53	-0.1	-0.3	0.85
Cpr30B	DRSC02728	0.54	0.29	0.15	0.28
RabX5	DRSC08608	0.05	0.63	0.19	0.08
